PMC3534379
No constants are given. Whether binding was seen depends on the method and setting. In cells and extracts the contact can be indirect.

Amino acid sequences for entries named in this document (tags omitted). A change or cut given only in a name is not applied to a line headed by its entry. Residues count along the entry.
UniProt Q10589, residues 1-161: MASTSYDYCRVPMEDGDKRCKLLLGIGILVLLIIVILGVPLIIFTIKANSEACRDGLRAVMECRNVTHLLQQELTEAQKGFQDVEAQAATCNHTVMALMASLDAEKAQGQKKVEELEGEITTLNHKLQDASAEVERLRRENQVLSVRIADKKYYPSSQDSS
UniProt Q1A262: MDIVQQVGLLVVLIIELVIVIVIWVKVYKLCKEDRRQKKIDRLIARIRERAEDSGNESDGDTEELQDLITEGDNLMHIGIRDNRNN

Target: human tetherin fused to the C-terminal fragment of Kusabira green (KGC) (human) (UniProt Q10589)
Test: split reporter; Kusabira green BiFC: KGN fused to Vpu, KGC fused to human tetherin; 293T cells cotransfected with 2.5 µg of each construct; two days later confocal microscopy and flow cytometry, MFI of Kusabira green normalised to the MFI of tetherin

With “SIVcpz MB897 Vpu fused to the N-terminal fragment of Kusabira green (KGN) (from UniProt Q1A262)” the binding was “no binding”.
